# Over roughly 33,000 sequences, “E-score (-0.5 to 0.5)” has its median near -0.0059; the highest 2% begin near 0.26. The list shows a part of the results.
# Target: T1, Cin5 (UniProt P40917)
# T1 sequence: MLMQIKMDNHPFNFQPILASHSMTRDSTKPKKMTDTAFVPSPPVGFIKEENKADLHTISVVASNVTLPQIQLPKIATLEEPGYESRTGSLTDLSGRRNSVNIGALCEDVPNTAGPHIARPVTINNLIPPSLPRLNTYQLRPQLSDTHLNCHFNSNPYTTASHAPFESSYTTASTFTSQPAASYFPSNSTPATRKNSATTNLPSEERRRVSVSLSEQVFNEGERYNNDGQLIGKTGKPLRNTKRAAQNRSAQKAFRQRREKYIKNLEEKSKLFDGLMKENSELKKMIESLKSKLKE
# Assay: PBM E-score (8-mer binding enrichment) (E-score (-0.5 to 0.5)); higher = stronger / more preferred TF binding
# Conditions: protein concentration: 100 nM; construct: GST-full length
# In short: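 GST-tagged yeast TFs (full-length or DNA-binding domain) were made by PURExpress in vitro transcription/translation and applied at about 100-200 nM to universal all-10-mer Agilent arrays. The arrays were made double-stranded by primer extension, on fresh or once-stripped slides. Bound protein was detected with fluorescent anti-GST, and scans were normalised with masliner. Each ungapped eight-base word, pooled with its reverse complement, received an E-score (modified Wilcoxon-Mann-Whitney statistic) from the Universal PBM Analysis Suite.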
row,Sequence,PBM E-score
1,CATTAAGC,0.0535
2,CTGTCATC,-0.0114
3,GTATATAC,0.104
4,AAACTCCG,-0.0418
5,ACCTTTAA,-0.0476
6,AAATGAGG,-0.0737
7,ATGTCGAC,0.198
8,GCCTCGCC,-0.232
9,GTCATGAA,0.115
10,AATGTGAT,0.201
11,CTCGTCCA,-0.0332
12,AAGATCGA,0.13
13,AGGGTGTA,-0.0304
14,GATTCACC,-0.0833
15,GTCGACCA,-0.0947
16,AGCGCACC,-0.0753
17,ACGGTCGC,-0.178
18,AGGCTACT,-0.0774
19,AAAGGACC,-0.118
20,CTCTGAGC,-0.2
21,AACACTCG,0.144
22,GGTCCACA,-0.155
23,CTGGCCCC,-0.17
24,CTACTGGC,-0.128
25,CTCCAGCA,-0.141

# Quoted from the listing:
# PBM E-score with AAGATCGA reads 0.13
# PBM E-score with GTCATGAA reads 0.115
# PBM E-score with ACGGTCGC reads -0.178
# PBM E-score with AGGGTGTA reads -0.0304
# PBM E-score with CTCTGAGC reads -0.2

# (next part)

row,Sequence,PBM E-score
1,ATGACCAA,0.0618
2,AATAGCGC,0.156
3,AGTTAAAA,0.207
4,GCCCCTAC,-0.0805
5,GGATAGCC,-0.0211
6,ACAAGGTA,0.0342
7,CCGAACAC,0.0281
8,GTAGTCAA,0.0357
9,AAGTGTTC,0.119
10,CGGGAACC,-0.199
11,AAGTATGA,0.192
12,AAGAGAAT,0.261
13,ATTGCTAC,0.00128
14,TCGTAAGA,-0.00999
15,GTGTAACA,0.00347
16,GGCTTCAA,-0.199
17,CCGTAGTA,-0.061
18,ATACTGAT,0.283
19,GCTGAACA,0.0703
20,CCTCGAAG,0.0156
21,ATAAAGTC,0.113
22,AGGTTATA,-0.0535
23,AGAAGGCT,-0.196
24,GGGAGTGA,-0.0411
25,CAGCGCTA,0.0318

row,Sequence,PBM E-score
1,TACGGTAA,0.174
2,CCTGACCC,-0.117
3,CTAACCAA,0.0775
4,CAGCCGGC,0.0236
5,CAGGGTAC,-0.2
6,AACCCGAT,0.258
7,GCGCGCGC,0.306
8,GGCCCTAC,-0.296
9,GACCCCTC,-0.135
10,GACCACAC,-0.138
11,CCTGAAAG,-0.152
12,AGGCAACG,0.00342
13,GATTGGTA,0.125
14,CTTTGTGA,-0.0268
15,CCTTCTCA,-0.0495
16,CGGAAGTC,0.00808
17,AGCTTTGA,-0.00168
18,AAAGAGTA,-0.0619
19,ACCCGGCC,-0.326
20,AATATATT,0.363
21,CTTGAACC,-0.0425
22,TCACAGAA,-0.0304
23,GACAGCCA,-0.0393
24,CCATAAAA,0.0525
25,ACAATATG,0.154

row,Sequence,PBM E-score
1,ACATCACC,-0.0163
2,AACGCCTG,-0.197
3,CACTTACG,0.112
4,GCCAGTGA,-0.124
5,CGCTGAAC,-0.0208
6,AACGACGC,-0.148
7,ACTCTCCA,-0.067
8,ATCCCTTC,-0.0251
9,CGCCCAAA,-0.0271
10,CAACCCGC,0.0659
11,AATTCTTG,0.09
12,AGTCGCAC,-0.075
13,AGTGAGTG,-0.0867
14,CGATTCCC,0.18
15,AGCCGCCC,0.00886
16,CTATACTC,0.079
17,CTCGCGGC,-0.148
18,CGTGTAGC,-0.124
19,CCGAACAG,-0.076
20,ACTCTAAC,0.0515
21,GATGAATC,0.161
22,ACAAAATA,0.215
23,CTTTCGGA,-0.125
24,GAGCATTA,0.074
25,AGGAACGC,-0.131

row,Sequence,PBM E-score
1,ACGTGCAC,-0.0416
2,GCCTGAGC,-0.245
3,ACTACGGG,-0.0352
4,GTGGCAAA,-0.0607
5,ATGGGGGG,-0.365
6,CTCTCTAA,-0.265
7,CTGAGCCC,-0.174
8,ATCTCCTA,-0.115
9,AGGTCTCC,-0.229
10,CAATAGAA,0.00091
11,ACTACACC,0.0233
12,ACCCGATC,0.05
13,CACCTAGG,-0.103
14,AAGTGCAG,-0.204
15,ACAACTGT,-0.0602
16,CTAGCATC,-0.0819
17,CGGGACGC,-0.161
18,AAGAGCTC,-0.122
19,AGTCAATC,0.0732
20,AAGAGGGT,-0.136
21,AGTGCCTA,-0.229
22,ACTGCGAG,-0.0805
23,AATTTGGG,0.153
24,ATCCCAAT,-0.00753
25,AGAGCGCA,-0.168

row,Sequence,PBM E-score
1,AACTCGAC,0.142
2,ATGTATAG,0.14
3,AGTTCGTC,0.117
4,CACCGGCA,-0.0317
5,CTGCGTCA,-0.0381
6,CGCGTCCC,-0.0951
7,ATTGCCTA,-0.0655
8,ACTGGGCT,-0.14
9,GTTAAGGA,-0.0227
10,AGTAATTG,0.132
11,AGACTGAC,-0.0929
12,CTTGCCTA,-0.0846
13,GCACGCGC,-0.101
14,ACGAGATC,0.00964
15,AGGCTTCG,-0.176
16,ACGCTCCG,-0.0736
17,GATCTTAA,-0.0435
18,GACACGTC,-0.129
19,CTTCAAGA,-0.145
20,AGCGAGCG,-0.0261
21,GATATTAA,0.282
22,GATCTTAC,-0.0363
23,GCTGAAGC,-0.0411
24,CTCTCTTC,-0.158
25,AAGCTCAA,-0.0289

# 6 entries from above, with bars between the fields:
row | Sequence | PBM E-score
11 | AGACTGAC | -0.0929
12 | CTTGCCTA | -0.0846
13 | GCACGCGC | -0.101
14 | ACGAGATC | 0.00964
15 | AGGCTTCG | -0.176
16 | ACGCTCCG | -0.0736

# (cont.)

row,Sequence,PBM E-score
1,AACTTTAG,0.0677
2,CGAGGCGA,-0.0442
3,AGCCCTCC,-0.247
4,AATACACG,0.0305
5,CGACATGC,0.13
6,AGTTACGA,0.207
7,AGGCGGAC,-0.0887
8,GACTTGGA,-0.051
9,CGACGAAA,0.0766
10,AATTCCAT,0.152
11,CGGTCTGC,-0.184
12,ATTGTCCC,-0.0881
13,GATAACCC,-0.088
14,ACCCGGTG,-0.065
15,CAAATGGC,-0.037
16,ACGATGAA,0.0842
17,AAAGAAGA,0.0185
18,ACGGTGGC,-0.0662
19,CGTTGGAC,-0.283
20,CCGGTATC,-0.0551
21,AACGCAGG,-0.0727
22,ACCGTAGA,0.0226

# Source: the supplement of paper PMC3334620
